In publication PMC6656725:
No constants are given. Whether binding was seen depends on the method and setting. In cells and extracts the contact can be indirect. A yes stands for co-enrichment or nearness to the bait. Other partners may have been found.

The chains behind the UniProt entries cited, without tags or fusion partners.
UniProt Q03267: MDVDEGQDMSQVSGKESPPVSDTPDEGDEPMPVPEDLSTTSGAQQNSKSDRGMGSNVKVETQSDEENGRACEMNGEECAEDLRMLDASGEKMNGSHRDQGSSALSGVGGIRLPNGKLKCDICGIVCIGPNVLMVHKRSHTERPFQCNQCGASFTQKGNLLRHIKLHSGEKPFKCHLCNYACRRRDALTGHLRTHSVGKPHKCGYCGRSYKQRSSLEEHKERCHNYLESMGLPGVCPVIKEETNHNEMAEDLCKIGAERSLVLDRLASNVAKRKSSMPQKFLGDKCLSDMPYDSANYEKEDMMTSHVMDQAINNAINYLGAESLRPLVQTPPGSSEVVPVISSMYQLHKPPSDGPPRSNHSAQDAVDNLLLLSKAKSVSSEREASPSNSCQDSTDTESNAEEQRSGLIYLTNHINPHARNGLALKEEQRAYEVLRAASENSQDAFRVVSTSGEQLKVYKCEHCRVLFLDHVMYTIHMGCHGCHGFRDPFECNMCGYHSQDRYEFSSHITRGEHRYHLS
UniProt Q6PDQ2: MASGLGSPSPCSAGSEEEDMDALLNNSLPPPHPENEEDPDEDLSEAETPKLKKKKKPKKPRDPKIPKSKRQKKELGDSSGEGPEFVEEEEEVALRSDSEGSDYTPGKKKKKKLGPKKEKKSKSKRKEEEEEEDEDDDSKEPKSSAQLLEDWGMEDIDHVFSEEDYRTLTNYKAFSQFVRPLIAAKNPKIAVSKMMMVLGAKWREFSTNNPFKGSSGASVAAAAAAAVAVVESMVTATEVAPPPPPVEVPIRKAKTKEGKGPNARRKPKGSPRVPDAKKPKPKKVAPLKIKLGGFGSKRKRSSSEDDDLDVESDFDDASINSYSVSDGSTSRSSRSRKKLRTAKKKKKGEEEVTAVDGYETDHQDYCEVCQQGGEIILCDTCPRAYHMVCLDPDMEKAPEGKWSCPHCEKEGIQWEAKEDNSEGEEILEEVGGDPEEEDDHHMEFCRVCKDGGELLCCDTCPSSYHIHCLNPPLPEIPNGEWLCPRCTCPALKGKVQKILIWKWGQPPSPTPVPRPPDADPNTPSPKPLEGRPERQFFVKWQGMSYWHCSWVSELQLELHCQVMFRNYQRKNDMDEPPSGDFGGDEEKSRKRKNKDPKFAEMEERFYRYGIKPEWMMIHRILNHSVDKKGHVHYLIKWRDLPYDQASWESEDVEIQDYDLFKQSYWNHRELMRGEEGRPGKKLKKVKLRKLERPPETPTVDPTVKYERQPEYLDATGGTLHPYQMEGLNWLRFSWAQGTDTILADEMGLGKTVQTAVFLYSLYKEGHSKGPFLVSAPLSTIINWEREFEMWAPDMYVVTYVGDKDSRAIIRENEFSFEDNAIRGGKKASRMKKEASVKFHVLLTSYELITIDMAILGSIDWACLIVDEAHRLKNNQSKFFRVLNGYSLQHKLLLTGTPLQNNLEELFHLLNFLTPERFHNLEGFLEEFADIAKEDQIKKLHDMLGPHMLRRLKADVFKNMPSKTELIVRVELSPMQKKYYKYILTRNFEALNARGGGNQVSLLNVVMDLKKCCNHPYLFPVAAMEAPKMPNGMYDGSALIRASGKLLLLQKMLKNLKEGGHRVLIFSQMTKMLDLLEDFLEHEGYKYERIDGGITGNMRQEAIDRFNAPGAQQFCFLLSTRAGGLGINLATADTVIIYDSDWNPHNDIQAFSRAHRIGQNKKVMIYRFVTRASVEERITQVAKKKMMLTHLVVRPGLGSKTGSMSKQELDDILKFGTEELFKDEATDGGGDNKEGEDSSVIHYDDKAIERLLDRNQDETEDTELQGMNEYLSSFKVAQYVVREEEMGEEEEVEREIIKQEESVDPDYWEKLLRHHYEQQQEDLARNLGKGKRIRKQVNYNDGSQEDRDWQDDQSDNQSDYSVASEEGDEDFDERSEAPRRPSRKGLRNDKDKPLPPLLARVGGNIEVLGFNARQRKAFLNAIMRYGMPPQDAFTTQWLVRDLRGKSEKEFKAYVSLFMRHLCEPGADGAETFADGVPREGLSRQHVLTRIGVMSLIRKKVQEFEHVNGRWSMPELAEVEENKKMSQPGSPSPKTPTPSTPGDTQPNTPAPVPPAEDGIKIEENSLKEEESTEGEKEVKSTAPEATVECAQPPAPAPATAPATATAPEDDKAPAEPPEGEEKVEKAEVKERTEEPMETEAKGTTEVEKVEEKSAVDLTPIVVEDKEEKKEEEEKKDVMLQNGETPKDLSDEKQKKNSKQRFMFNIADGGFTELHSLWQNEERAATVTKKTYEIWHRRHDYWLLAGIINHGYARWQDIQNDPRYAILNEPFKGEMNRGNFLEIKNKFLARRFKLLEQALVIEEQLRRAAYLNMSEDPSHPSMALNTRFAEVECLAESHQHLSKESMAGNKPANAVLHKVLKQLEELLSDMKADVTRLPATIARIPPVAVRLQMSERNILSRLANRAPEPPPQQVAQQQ
UniProt O08900: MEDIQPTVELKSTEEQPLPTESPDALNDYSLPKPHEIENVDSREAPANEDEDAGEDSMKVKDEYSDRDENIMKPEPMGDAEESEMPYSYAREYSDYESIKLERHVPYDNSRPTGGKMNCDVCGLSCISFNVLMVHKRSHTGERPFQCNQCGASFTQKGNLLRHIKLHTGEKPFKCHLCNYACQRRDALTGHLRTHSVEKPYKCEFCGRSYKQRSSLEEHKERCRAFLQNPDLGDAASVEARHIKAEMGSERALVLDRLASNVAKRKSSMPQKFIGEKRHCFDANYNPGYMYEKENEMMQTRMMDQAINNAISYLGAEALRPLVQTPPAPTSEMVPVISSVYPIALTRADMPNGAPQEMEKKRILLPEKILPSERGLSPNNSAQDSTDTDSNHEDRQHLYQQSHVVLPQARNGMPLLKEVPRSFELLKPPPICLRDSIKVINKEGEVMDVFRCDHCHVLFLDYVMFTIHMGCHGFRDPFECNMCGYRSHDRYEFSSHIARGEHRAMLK

Target: T1, Eomesodermin (EOMES), endogenous, in activated mouse CD8+ T cells (mouse (endogenous in CD8+ T cells of Balb/c mice)) (UniProt O54839)
T1 sequence: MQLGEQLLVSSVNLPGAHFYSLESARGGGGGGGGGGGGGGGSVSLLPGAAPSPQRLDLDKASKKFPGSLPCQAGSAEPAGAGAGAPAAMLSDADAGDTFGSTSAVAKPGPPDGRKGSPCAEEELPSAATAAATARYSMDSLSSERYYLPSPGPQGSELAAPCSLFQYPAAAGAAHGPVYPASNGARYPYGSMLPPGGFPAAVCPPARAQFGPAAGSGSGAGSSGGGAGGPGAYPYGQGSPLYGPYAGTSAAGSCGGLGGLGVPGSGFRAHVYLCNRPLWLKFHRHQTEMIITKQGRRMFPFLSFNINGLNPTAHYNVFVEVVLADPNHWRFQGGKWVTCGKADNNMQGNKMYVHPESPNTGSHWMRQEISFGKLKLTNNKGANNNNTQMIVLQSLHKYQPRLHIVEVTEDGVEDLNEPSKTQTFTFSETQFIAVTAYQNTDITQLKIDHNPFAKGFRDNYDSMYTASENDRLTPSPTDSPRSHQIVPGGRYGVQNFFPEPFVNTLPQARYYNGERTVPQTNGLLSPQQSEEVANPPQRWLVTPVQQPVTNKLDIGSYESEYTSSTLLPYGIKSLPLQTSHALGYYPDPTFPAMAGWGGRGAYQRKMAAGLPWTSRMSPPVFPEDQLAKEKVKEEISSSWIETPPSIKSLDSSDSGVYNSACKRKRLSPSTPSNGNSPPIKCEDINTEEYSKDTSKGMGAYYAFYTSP
Test: affinity purification with mass spectrometry; RIME: activated mouse CD8+ T cells fixed with 1% formaldehyde, chromatin sheared to 300-500 bp, immunoprecipitated with anti-EOMES or control IgG on protein G magnetic beads, on-bead trypsin digest, LC-MS/MS

| Substance | binding |
| --- | --- |
| IKZF1, endogenous, in activated mouse CD8+ T cells (from UniProt Q03267 1-517) | binds |
| CHD4, endogenous, in activated mouse CD8+ T cells (from UniProt Q6PDQ2 1-1915) | binds |
| IKZF3, endogenous, in activated mouse CD8+ T cells (from UniProt O08900 1-507) | binds |
